From patent US20260234281A1
Residue numbers refer to the chain shown, from its start. No constants are given. Whether binding was seen depends on the method and setting. Some entries that bind do so weakly or less than the wild type.

Chains of the proteins cited; added tags and fusions are not shown. Residues count along the entry.
UniProt P02786, residues 121-760: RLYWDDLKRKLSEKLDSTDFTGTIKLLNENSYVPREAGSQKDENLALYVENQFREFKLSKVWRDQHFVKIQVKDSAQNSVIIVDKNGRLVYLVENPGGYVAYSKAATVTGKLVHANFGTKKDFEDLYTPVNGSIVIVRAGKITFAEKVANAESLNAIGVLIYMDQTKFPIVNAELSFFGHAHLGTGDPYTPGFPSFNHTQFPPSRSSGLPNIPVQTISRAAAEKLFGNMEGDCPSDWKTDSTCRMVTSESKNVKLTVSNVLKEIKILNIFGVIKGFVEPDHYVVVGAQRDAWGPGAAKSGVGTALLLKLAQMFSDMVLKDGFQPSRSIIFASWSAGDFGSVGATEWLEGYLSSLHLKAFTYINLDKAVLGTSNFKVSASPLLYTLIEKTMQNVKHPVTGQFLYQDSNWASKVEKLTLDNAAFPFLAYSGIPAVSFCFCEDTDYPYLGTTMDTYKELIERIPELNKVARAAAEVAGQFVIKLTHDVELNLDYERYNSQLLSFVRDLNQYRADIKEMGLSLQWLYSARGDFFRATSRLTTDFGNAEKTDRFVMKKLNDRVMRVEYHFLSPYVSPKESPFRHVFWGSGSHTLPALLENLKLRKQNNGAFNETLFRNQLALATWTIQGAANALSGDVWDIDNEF

B1: Chimeric anti-human transferrin receptor antibody 128.1 (wild-type) (antibody, V domains shown)
VH: EVQLQQSGPELVKPGASMKISCKASGYSFTGYTMNWVKQSHGENLEWIGRINPHNGGTDYNQKFKDKAPLTVDKSSNTAYMELLSLTSEDSAVYYCARGYYYYSLDYWGQGTSVTVSS
VL: QIVLTQSPAIMSASPGEKVTMTCSASSSIDYIHWYQQKSGTSPKRWIYDTSKLASGVPARFSGSGSGTSYSLTISSMEPEDAATYYCHQRNSYPWTFGGGTRLEIR
B2: Humanized 128.1 antibody L11+H17 (antibody, V domains shown)
VH: QVQLVQSGAEVKKPGASVKVSCKASGYSFTGYTISWVRQAPGQGLEWMGWINPHNGGTNYAQKLQGRVTMTTDTSTSTAYMELRSLRSDDTAVYYCARGYYYYSLDYWGQGTSVTVSS
VL: DIQMTQSPSAMSASVGDRVTITCRASSSIDYLAWFQQKPGKVPKRLIYDTSSLQSGVPSRFSGSGSGTEFTLTISSLQPEDFATYYCHQRNSYPWTFGQGTRLEIK
B3: Humanized 128.1 antibody L12+H20 (antibody, V domains shown)
VH: B2 VH with I34M, S35H, W50I, N59S, L64F, T72R, A79V, R84S, D89E
VL: B2 VL with D1A, M4L, A10S, M11L, F35Y, V42A, R45L, Q54E, E69D
B4: Humanized 128.1 antibody L15+H20 (antibody, V domains shown)
VH: B2 VH with I34M, S35H, W50I, N59S, L64F, T72R, A79V, R84S, D89E
VL: EIVLTQSPATLSLSPGERATLSCRASSSIDYLAWYQQKPGQAPRLLIYDTSNRATGIPARFSGSGPGTDFTLTISSLEPEDFAVYYCHQRNSYPWTFGQGTRLEIK
B5: Humanized 128.1 antibody L20+H13 (antibody, V domains shown)
VH: B2 VH with S35N, P41T, N59G, L64F, T72R, D73N, T76I, R84S, D89E
VL: B4 VL with N52S, A59D, P66S, S76R
B6: Humanized 128.1 antibody L21+H13 (antibody, V domains shown)
VH: B2 VH with S35N, P41T, N59G, L64F, T72R, D73N, T76I, R84S, D89E
VL: DIQMTQSPSTLSASVGDRVTITCSASSSIDYMHWYQQKPGKAPKLLIYDTSKLASGVPARFSGSGSGTEFTLTISSLQPDDFATYYCHQRNSYPWTFGQGTKVEVK
B7: Humanized anti-human transferrin receptor antibody 128.1 (antibody, V domains shown)
VH: EVKLQQSGPELVKPGASVKMSCKASGYSFTGYTMNWVKQKPGQGLEWIGRINPHNGGTDYNQKFKDKATLTSDKSSSTAYMELSSLTSEDSAVYYCARGYYYYSLDYWGQGTTLTVSS
VL: B1 VL with S39P, P79A, R102K, R106K
B8: Humanized 128.1 antibody L2+H19 (antibody, V domains shown)
VH: B2 VH with T91M
VL: B2 VL with A10T, M11L, T22I, F35Y, V42A, R45L, Q54E, E80D
B9: Humanized 128.1 antibody L7+H13 (antibody, V domains shown)
VH: B2 VH with S35N, P41T, N59G, L64F, T72R, D73N, T76I, R84S, D89E
VL: B2 VL with A10S, M11L, V42A, R45S, E69D
B10: Humanized 128.1 antibody L9+H15 (antibody, V domains shown)
VH: B2 VH with S113T
VL: B2 VL with A10S, M11L, A33G, F35Y, V42A
B11: Humanized 128.1 antibody L10+H16 (antibody, V domains shown)
VH: B2 VH with T91M
VL: B2 VL with A10S, M11L, A33G, F35Y, V42A, S76N

Legend:
[1] = target: Human transferrin receptor (TfR) protein, coated on ELISA plate (human) (UniProt P02786); assay: ELISA, human TfR coated at 2.5 ug/mL, HRP anti-human IgG detection
[2] = target: Human transferrin receptor (TfR) protein, coated on ELISA plate (human) (UniProt P02786); assay: affinity measurement against TfR protein with purified antibody (FIG. 12)

Binder	binding [1]	binding [2]
B1	binds	
B2		binds
B3		binds
B4		binds
B5		binds
B6		binds
B7	binds	
B8		binds
B9		binds
B10		binds
B11		binds
